{"source": "PubChem BioAssay AID1259308 (NCATS, 2017)", "aim": "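Candidate targets for better recombinant protein yield in mammalian cells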 (primary screen)", "system": "human HEK293 embryonic kidney cells stably expressing firefly luciferase (HEK-CMV-Luc2-Hygro)", "reagent": "single siRNA against human genes, 0.8 pmol siRNA per well", "time to read-out": "72 h", "measurement": "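Reporter luminescence and viable-cell signal on separate replicate plates, given as percent of non-targeting control and median/MAD z-scores, plus per-cell luciferase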", "scale": "total luciferase, z-score: higher = more reporter protein produced", "call rule": "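An siRNA counts as active if its total luciferase robust z-score exceeds 3; genes with two or more such siRNAs out of three were retested with fresh siRNAs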", "meaning of the calls": "active = raised luciferase; inactive = no rise", "note": "Here is a random part of about 59,000 reagents tested. Of all reagents, about 1,510 (2.6%) got an active call. 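Calls use total luciferase alone and ignore viability, so some active siRNAs may act by altering cell number.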 Unmarked entries are inactive. The numbers tell different reagents against one gene apart. Not all columns of the deposit are shown."}
{"target":"GPRIN1 (G protein regulated inducer of neurite outgrowth 1)","siRNA no.":1,"total luciferase, z-score":2.42}
{"target":"GPRIN1 (G protein regulated inducer of neurite outgrowth 1)","siRNA no.":2,"total luciferase, z-score":-0.813}
{"target":"GPRIN1 (G protein regulated inducer of neurite outgrowth 1)","siRNA no.":3,"total luciferase, z-score":0.896}
{"target":"FBXO40 (F-box protein 40)","siRNA no.":1,"total luciferase, z-score":-0.644}
{"target":"FBXO40 (F-box protein 40)","siRNA no.":2,"total luciferase, z-score":0.523}
{"target":"FBXO40 (F-box protein 40)","siRNA no.":3,"total luciferase, z-score":-0.182}
{"target":"OR2L8 (olfactory receptor family 2 subfamily L member 8)","siRNA no.":1,"total luciferase, z-score":-0.944}
{"target":"OR2L8 (olfactory receptor family 2 subfamily L member 8)","siRNA no.":2,"total luciferase, z-score":-0.751}
{"target":"OR2L8 (olfactory receptor family 2 subfamily L member 8)","siRNA no.":3,"total luciferase, z-score":-0.517}
{"target":"CDK8 (cyclin dependent kinase 8)","siRNA no.":1,"total luciferase, z-score":-0.799}
{"target":"CDK8 (cyclin dependent kinase 8)","siRNA no.":2,"total luciferase, z-score":-0.64}
{"target":"CDK8 (cyclin dependent kinase 8)","siRNA no.":3,"total luciferase, z-score":-1.95}

A portion of the results above, as a working copy:
{"target":"CDK8 (cyclin dependent kinase 8)","siRNA no.":2,"total luciferase, z-score":-0.64}
{"target":"CDK8 (cyclin dependent kinase 8)","siRNA no.":3,"total luciferase, z-score":-1.95}
